The values below come from patent US6562829B1, “Treatment of hepatic cirrhosis” (Hadasit Medical Research Services & Development Co., Ltd., priority 1997, dated 2003).

The subject of series [1] is mild dimethylnitrosamine-induced fibrosis. In words: Mild dimethylnitrosamine-induced fibrosis in rat liver (Example 2). It counts as in vivo. As to conditions: Halofuginone alone. As for the experimental part: The specific experimental method used was similar to that of Example 1, except that the dimethylnitrosamine-treated rats were only given 0.25% dimethylnitrosamine in saline, a much lower dose than that given in Example 1 above. Also, the duration of treatment was longer before the rats were sacrificed: 4 weeks as opposed to 3 weeks in Example 1.
The expression of the collagen α1(I) gene was measured as described in Example 1 above. For hydroxyproline analysis, liver samples were hydrolyzed for 22 hours at 110° C. with 6 N HCl. Nitrogen was determined after Kjeldahl digestion by the spectrophotometric procedure using an autoanalyzer as described by Krom [M. D. Krom, Analyst, 105:305-16, 1980]. The collagen-unique amino acid hydroxyproline from the same hydrolysate was determined by amino acid analysis (Biotronik LC 5000, Germany) after post-column derivatization on a cation exchange column (BTC 2710, Biotronik). The results are expressed as the percentage of collagen in total liver proteins.

The subject of series [2] is dimethylnitrosamine-induced hepatic fibrosis. In words: Dimethylnitrosamine-induced severe liver fibrosis in rats (Example 1). The class given is in vivo. As to conditions: rats given Halofuginone alone, 5 mg/kg diet. The method, then:
The experimental method was as follows. Male Sprague-Dawley rats were divided into four groups. Two groups were injected intraperitoneally with 1% dimethylnitrosamine in saline for three consecutive days per week for 3 weeks, at a dose of 1 ml/kg body weight. This dosage regimen will induce severe liver fibrosis. The other two groups of rats, control rats, were injected with saline. One group of dimethylnitrosamine-treated rats and one control group were fed Halofuginone in the diet at a dose of 5 mg/kg weight of diet, starting three days before the dimethylnitrosamine injections were administered. At the end of the experimental period, the rats were sacrificed and the liver was removed and weighed.
Liver samples were taken for histological examination. Briefly, the tissue samples were collected into phosphate-buffered saline (PBS) and fixed overnight in 4% paraformaldehyde in PBS at 4° C. Serial 5 μm sections were prepared after the samples had been dehydrated in graded ethanol solutions, cleared in chloroform and embedded in Paraplast. Differential staining of collagenous and non-collagenous proteins was performed with 0.1% Sirius red and 0.1% fast green as a counter-stain in picric acid. This procedure stains collagen red [Gascon-Barre, M., et al., J. Histochem. Cytochem., 37:377-381, 1989].
Liver samples were then hybridized with a probe for rat collagen α1(I) expression. […]

As for `O=C(CC1NCCC[C@H]1O)Cn1cnc2cc(Br)c(Cl)cc2c1=O` (some centres unmarked) [Halofuginone], in series [1], the “collagen α1(I) gene expression in liver” value is “no effect”. Besides, in series [2], the “expression of collagen α1(I) gene in liver (in situ hybridization)” value is “low expression”.
